Data published in the supplement of paper PMC4604168 (melanoma cell lines).
This is one part of the list. Single values are uncertain, as repeats are few or missing.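 The apoptosis fraction was the count of cleaved-PARP antibody-stained nuclei relative to all DNA-stained nuclei, imaged in 1,536-well plates. Screening doses were set so most cells survived, and baseline and induced cleaved-PARP levels vary greatly across cell lines.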

Assays:
Assay in all cases: cleaved PARP positive nuclei fraction relative to DMSO control; melanoma cells; higher = more apoptosis
Details in all cases: library dose: low library concentration; 72 h
COLO792 = system: COLO792
COLO800 = system: COLO800
COLO829 = system: COLO829
G361 = system: G361
IPC-298 = system: IPC-298
IST-MEL1 = system: IST-MEL1
LB2518-MEL = system: LB2518-MEL
LOXIMVI = system: LOXIMVI

SMILES	cleaved PARP positive nuclei fraction (COLO792) [%]	cleaved PARP positive nuclei fraction (COLO800) [%]	cleaved PARP positive nuclei fraction (COLO829) [%]	cleaved PARP positive nuclei fraction (G361) [%]	cleaved PARP positive nuclei fraction (IPC-298) [%]	cleaved PARP positive nuclei fraction (IST-MEL1) [%]	cleaved PARP positive nuclei fraction (LB2518-MEL) [%]	cleaved PARP positive nuclei fraction (LOXIMVI) [%]
C[C@]12O[C@H](C[C@]1(O)CO)n1c3ccccc3c3c4c(c5c6ccccc6n2c5c31)CNC4=O [Lestaurtinib] + COc1ccc(COc2ccc(Cc3cnc(N)nc3N)cc2OC)cc1 [GW2580] (first compound 0.004 µM, partner dose 1 µM)	134	111	30.4	158	46.2	42.6	74.3	94
Nc1nc(F)nc2c1ncn2[C@@H]1O[C@H](CO)[C@@H](O)[C@@H]1O [fludarabine] + Cc1cc(SCc2sc(-c3ccc(C(F)(F)F)c(F)c3)nc2C)ccc1OCC(=O)O [GW0742] (first compound 0.2 µM, partner dose 2 µM)	57.3	165	94.7	128	66.3	92.8	65.4	108
C[C@@H](N)c1ccc(C(=O)Nc2ccnc3[nH]ccc23)cc1 + O=C(Oc1ccc([N+](=O)[O-])cc1)N1CCC(C(O)(c2ccc3c(c2)OCO3)c2ccc3c(c2)OCO3)CC1 [JZL184] (first compound 0.4 µM, partner dose 1 µM)	158	90.6	31	216	45	362	140	141
Cc1cc(Nc2cc(N3CCN(C)CC3)nc(Sc3ccc(NC(=O)C4CC4)cc3)n2)n[nH]1 [Tozasertib] + C/C(O)=C(\C#N)C(=O)Nc1cc(Br)ccc1Br [LFM-A13] (first compound 0.006 µM, partner dose 2 µM)	137	221	243	77.2	45.7	92.2	84.3	92.5
CCCCCCCCCCCCCCCCCCOP(=O)([O-])OC1CC[N+](C)(C)CC1 [Perifosine] + Cc1cc(SCc2sc(-c3ccc(C(F)(F)F)c(F)c3)nc2C)ccc1OCC(=O)O [GW0742] (first compound 0.4 µM, partner dose 2 µM)	89.5	66.7	158	72.4	60.9	236	134	55.7
C[C@@H](Oc1cc(-c2cnn(C3CCNCC3)c2)cnc1N)c1c(Cl)ccc(F)c1Cl [Crizotinib] + C/C(O)=C(\C#N)C(=O)Nc1cc(Br)ccc1Br [LFM-A13] (first compound 0.2 µM, partner dose 2 µM)	122	44.5	106	106	94	86.8	72.3	72.6
C[C@]1(O)C[C@@H](c2nc(-c3ccc4ccc(-c5ccccc5)nc4c3)c3c(N)nccn32)C1 + Cc1cc(SCc2sc(-c3ccc(C(F)(F)F)c(F)c3)nc2C)ccc1OCC(=O)O [GW0742] (first compound 0.4 µM, partner dose 2 µM)	129	97.8	172	102	105	37.6	36.7	163
CC(=O)O[C@@]12CO[C@@H]1C[C@H](O)[C@@]1(C)C(=O)[C@H](O)C3=C(C)[C@@H](OC(=O)[C@H](O)[C@@H](NC(=O)OC(C)(C)C)c4ccccc4)C[C@@](O)([C@@H](OC(=O)c4ccccc4)[C@H]21)C3(C)C [Docetaxel] + Cc1cc(SCc2sc(-c3ccc(C(F)(F)F)c(F)c3)nc2C)ccc1OCC(=O)O [GW0742] (first compound 0.0001 µM, partner dose 2 µM)	382	1010	281	507	143	45.4	311	145
Cn1cc(C2=C(c3cn(C4CCN(Cc5ccccn5)CC4)c4ccccc34)C(=O)NC2=O)c2ccccc21 [Enzastaurin] + Cc1cc(SCc2sc(-c3ccc(C(F)(F)F)c(F)c3)nc2C)ccc1OCC(=O)O [GW0742] (first compound 0.8 µM, partner dose 2 µM)	148	39.2	82.6	99.8	44.2	100	99.8	182
COc1ccc(C2=N[C@@H](c3ccc(Cl)cc3)[C@@H](c3ccc(Cl)cc3)N2C(=O)N2CCNC(=O)C2)c(OC(C)C)c1 [Nutlin-3] + O=C(Oc1ccc([N+](=O)[O-])cc1)N1CCC(C(O)(c2ccc3c(c2)OCO3)c2ccc3c(c2)OCO3)CC1 [JZL184] (first compound 0.1 µM, partner dose 1 µM)	115	85.3	171	65.1	160	95.7	70.4	37.5
COc1ccc(C2=N[C@@H](c3ccc(Cl)cc3)[C@@H](c3ccc(Cl)cc3)N2C(=O)N2CCNC(=O)C2)c(OC(C)C)c1 [Nutlin-3] + Cc1cc(SCc2sc(-c3ccc(C(F)(F)F)c(F)c3)nc2C)ccc1OCC(=O)O [GW0742] (first compound 0.1 µM, partner dose 2 µM)	88.9	117	83.5	140	88.5	186	67	202
OCc1c[nH]c2ccccc12 [Indole-3-carbinol] + Cc1cc(SCc2sc(-c3ccc(C(F)(F)F)c(F)c3)nc2C)ccc1OCC(=O)O [GW0742] (first compound 0.8 µM, partner dose 2 µM)	41.4	51.1	154	144	59.3	94.2	70.9	205
Nc1nc(F)nc2c1ncn2[C@@H]1O[C@H](CO)[C@@H](O)[C@@H]1O [fludarabine] + C/C(O)=C(\C#N)C(=O)Nc1cc(Br)ccc1Br [LFM-A13] (first compound 0.2 µM, partner dose 2 µM)	76.3	75.5	138	123	64.6	95.4	64	141
Cn1cc(C2=C(c3cn(C4CCN(Cc5ccccn5)CC4)c4ccccc34)C(=O)NC2=O)c2ccccc21 [Enzastaurin] + O=C(O)C(=O)Nc1sc2c(c1C(=O)O)CCNC2 [TCS401] (first compound 0.8 µM, partner dose 1.66667 µM)	63.3	122	74.3	107	148	192	152	86
C[C@]12O[C@H](C[C@]1(O)CO)n1c3ccccc3c3c4c(c5c6ccccc6n2c5c31)CNC4=O [Lestaurtinib] + Cc1cc(SCc2sc(-c3ccc(C(F)(F)F)c(F)c3)nc2C)ccc1OCC(=O)O [GW0742] (first compound 0.004 µM, partner dose 2 µM)	148	62.5	80.3	141	31.7	120	158	146
Cn1cc(C2=C(c3cn(C4CCN(Cc5ccccn5)CC4)c4ccccc34)C(=O)NC2=O)c2ccccc21 [Enzastaurin] + O=C1NC(=O)/C(=C/c2ccc(-c3ccc(F)cc3O)o2)S1 [AS252424] (first compound 0.8 µM, partner dose 1 µM)	62.4	57.3	208	17.3	45	21.3	35.7	115
N#CC[C@H](C1CCCC1)n1cc(-c2ncnc3[nH]ccc23)cn1 [ruxolitinib] + O=C(Oc1ccc([N+](=O)[O-])cc1)N1CCC(C(O)(c2ccc3c(c2)OCO3)c2ccc3c(c2)OCO3)CC1 [JZL184] (first compound 1 µM, partner dose 1 µM)	149	31.1	79.6	192	256	113	49.9	133
CS(=O)(=O)CCNCc1ccc(-c2ccc3ncnc(Nc4ccc(OCc5cccc(F)c5)c(Cl)c4)c3c2)o1 [lapatinib] + C/C(O)=C(\C#N)C(=O)Nc1cc(Br)ccc1Br [LFM-A13] (first compound 0.8 µM, partner dose 2 µM)	206	145	117	92.6	92.3	78.8	269	101
CS(=O)(=O)c1ccc(C(=O)Nc2ccc(Cl)c(-c3ccccn3)c2)c(Cl)c1 [vismodegib] + O=C(Oc1ccc([N+](=O)[O-])cc1)N1CCC(C(O)(c2ccc3c(c2)OCO3)c2ccc3c(c2)OCO3)CC1 [JZL184] (first compound 1 µM, partner dose 1 µM)	89.9	46.8	137	168	226	236	31.9	24.8
C[C@]12O[C@H](C[C@]1(O)CO)n1c3ccccc3c3c4c(c5c6ccccc6n2c5c31)CNC4=O [Lestaurtinib] + Cc1cc([N+](=O)[O-])ccc1NS(=O)(=O)c1cc(Cl)ccc1Cl [FH535] (first compound 0.004 µM, partner dose 1 µM)	98.3	103	58.7	200	105	40.3	184	178
Cc1ccc(Nc2nccc(N(C)c3ccc4c(C)n(C)nc4c3)n2)cc1S(N)(=O)=O [Pazopanib] + O=C(Oc1ccc([N+](=O)[O-])cc1)N1CCC(C(O)(c2ccc3c(c2)OCO3)c2ccc3c(c2)OCO3)CC1 [JZL184] (first compound 0.4 µM, partner dose 1 µM)	79.1	135	59.5	78.4	140	290	24.1	286
CCCCCCCCc1ccc(CCC(N)(CO)CO)cc1 [fingolimod] + C/C(O)=C(\C#N)C(=O)Nc1cc(Br)ccc1Br [LFM-A13] (first compound 2 µM, partner dose 2 µM)	80.5	335	153	144	63	76.7	49.2	121
C[C@]1(O)C[C@@H](c2nc(-c3ccc4ccc(-c5ccccc5)nc4c3)c3c(N)nccn32)C1 + C/C(O)=C(\C#N)C(=O)Nc1cc(Br)ccc1Br [LFM-A13] (first compound 0.4 µM, partner dose 2 µM)	71.5	322	161	194	168	105	81.3	173

Part of the list above, field by field.
Cn1cc(C2=C(c3cn(C4CCN(Cc5ccccn5)CC4)c4ccccc34)C(=O)NC2=O)c2ccccc21 [Enzastaurin] + O=C1NC(=O)/C(=C/c2ccc(-c3ccc(F)cc3O)o2)S1 [AS252424] (first compound 0.8 µM, partner dose 1 µM)
  cleaved PARP positive nuclei fraction (COLO792) [%]: 62.4; cleaved PARP positive nuclei fraction (COLO800) [%]: 57.3; cleaved PARP positive nuclei fraction (COLO829) [%]: 208; cleaved PARP positive nuclei fraction (G361) [%]: 17.3; cleaved PARP positive nuclei fraction (IPC-298) [%]: 45; cleaved PARP positive nuclei fraction (IST-MEL1) [%]: 21.3; cleaved PARP positive nuclei fraction (LB2518-MEL) [%]: 35.7; cleaved PARP positive nuclei fraction (LOXIMVI) [%]: 115
N#CC[C@H](C1CCCC1)n1cc(-c2ncnc3[nH]ccc23)cn1 [ruxolitinib] + O=C(Oc1ccc([N+](=O)[O-])cc1)N1CCC(C(O)(c2ccc3c(c2)OCO3)c2ccc3c(c2)OCO3)CC1 [JZL184] (first compound 1 µM, partner dose 1 µM)
  cleaved PARP positive nuclei fraction (COLO792) [%]: 149; cleaved PARP positive nuclei fraction (COLO800) [%]: 31.1; cleaved PARP positive nuclei fraction (COLO829) [%]: 79.6; cleaved PARP positive nuclei fraction (G361) [%]: 192; cleaved PARP positive nuclei fraction (IPC-298) [%]: 256; cleaved PARP positive nuclei fraction (IST-MEL1) [%]: 113; cleaved PARP positive nuclei fraction (LB2518-MEL) [%]: 49.9; cleaved PARP positive nuclei fraction (LOXIMVI) [%]: 133
